Measurements reported in PubChem BioAssay AID588342 (National Center for Advancing Translational Sciences (NCATS), 2011).
Out of some 360,000 compounds screened, about 25,000 (6.9%) were called active. Only results without a clear call are listed here; the source files them as inconclusive. Calls come from the whole dose curve; as a rule, active = well fitted inhibition curve with a large enough effect; inconclusive = small, poorly fitted or top-dose-only effect; inactive = flat fitted curve, though single readings scatter.

Protein sequences, listed by entry. Tags and fused reporters are not part of them.
UniProt P08659, whole entry: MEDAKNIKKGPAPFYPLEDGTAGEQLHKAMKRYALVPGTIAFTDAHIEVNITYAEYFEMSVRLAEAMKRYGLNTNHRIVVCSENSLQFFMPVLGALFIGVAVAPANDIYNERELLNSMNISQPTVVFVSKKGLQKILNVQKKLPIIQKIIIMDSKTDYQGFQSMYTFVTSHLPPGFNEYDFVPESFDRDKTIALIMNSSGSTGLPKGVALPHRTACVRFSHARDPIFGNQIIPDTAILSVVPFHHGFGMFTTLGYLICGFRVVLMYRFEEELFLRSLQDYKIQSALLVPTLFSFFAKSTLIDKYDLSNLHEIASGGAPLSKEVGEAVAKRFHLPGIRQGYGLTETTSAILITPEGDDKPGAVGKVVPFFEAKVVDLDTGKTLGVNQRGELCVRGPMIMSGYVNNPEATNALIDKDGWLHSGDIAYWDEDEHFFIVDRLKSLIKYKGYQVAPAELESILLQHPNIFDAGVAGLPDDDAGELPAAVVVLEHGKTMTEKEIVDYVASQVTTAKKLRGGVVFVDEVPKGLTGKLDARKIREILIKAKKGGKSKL

These compounds were tested against Luciferin 4-monooxygenase (Photinus pyralis) (UniProt P08659) (assay: qHTS profiling assay for firefly luciferase inhibitor/activator using purifed enzyme and Km concentrations of substrates (counterscreen for miR-21 project)). Conditions: purified FLuc, luminescence inhibition.
Note: nearly all actives have a fitted effect of over 55% in size.
Potency is the fitted concentration of half-maximal effect.

SMILES	Potency
CC(C)c1ccc(NC2CCN(C(=O)OC(C)(C)C)CC2)cc1	inconclusive: 26.9 µM
